Reference: article PMC3585330
These are yes or no findings as the source states them, for the method shown. In cells and extracts the contact can be indirect. Some entries that bind do so weakly or less than the wild type.

Amino acid sequences for entries named in this document (tags omitted). A change or cut given only in a name is not applied to a line headed by its entry. Chains listed by the source or under a name are the forms on record and can include a tag or linker.
Cysteine (C)-X-C Receptor 4 (CXCR4) (human (endogenous in PC3)) (P61073, form named): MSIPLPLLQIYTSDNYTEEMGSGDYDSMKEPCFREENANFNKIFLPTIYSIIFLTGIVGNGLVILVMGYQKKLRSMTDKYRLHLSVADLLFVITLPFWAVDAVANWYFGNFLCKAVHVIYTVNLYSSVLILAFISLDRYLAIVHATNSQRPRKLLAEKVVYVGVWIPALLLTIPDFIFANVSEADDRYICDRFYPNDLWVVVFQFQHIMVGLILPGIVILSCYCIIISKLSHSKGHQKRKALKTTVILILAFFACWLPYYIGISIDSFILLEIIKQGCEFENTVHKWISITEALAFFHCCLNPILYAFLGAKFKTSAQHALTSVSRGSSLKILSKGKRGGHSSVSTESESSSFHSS
UniProt Q92973: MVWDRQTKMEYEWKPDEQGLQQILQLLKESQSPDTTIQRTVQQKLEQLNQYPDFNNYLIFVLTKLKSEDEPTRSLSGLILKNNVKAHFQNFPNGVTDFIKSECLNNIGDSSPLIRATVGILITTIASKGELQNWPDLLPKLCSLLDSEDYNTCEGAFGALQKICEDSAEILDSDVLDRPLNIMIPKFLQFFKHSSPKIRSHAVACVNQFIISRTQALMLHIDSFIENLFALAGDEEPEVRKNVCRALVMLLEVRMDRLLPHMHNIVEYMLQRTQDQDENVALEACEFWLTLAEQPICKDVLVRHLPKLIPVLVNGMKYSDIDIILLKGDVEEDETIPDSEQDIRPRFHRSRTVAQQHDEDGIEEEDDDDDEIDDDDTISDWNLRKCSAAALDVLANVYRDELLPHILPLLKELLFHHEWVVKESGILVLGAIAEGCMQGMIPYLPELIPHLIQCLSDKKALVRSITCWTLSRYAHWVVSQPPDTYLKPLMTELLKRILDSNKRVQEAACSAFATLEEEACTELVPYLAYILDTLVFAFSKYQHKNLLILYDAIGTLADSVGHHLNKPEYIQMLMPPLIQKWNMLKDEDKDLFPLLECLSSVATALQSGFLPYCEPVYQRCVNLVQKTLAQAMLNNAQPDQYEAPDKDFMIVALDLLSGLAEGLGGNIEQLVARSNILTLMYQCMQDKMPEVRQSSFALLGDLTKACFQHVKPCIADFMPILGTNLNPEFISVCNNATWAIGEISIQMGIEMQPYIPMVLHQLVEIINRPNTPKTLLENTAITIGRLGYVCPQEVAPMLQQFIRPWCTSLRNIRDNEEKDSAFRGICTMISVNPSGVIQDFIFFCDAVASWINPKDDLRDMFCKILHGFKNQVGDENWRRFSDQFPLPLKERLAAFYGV

Target: Cysteine (C)-X-C Receptor 4 (CXCR4) (human (endogenous in PC3)) (UniProt P61073)
Experiment: co-IP; 1 mg PC3 whole cell lysate immunoprecipitated for CXCR4 (Santa Cruz antibody) overnight at 4°C, Protein A/G Plus-Agarose beads 2 hrs at 4°C, 3 washes with PBS; western blot for TRN1

binding: binds
Substance: Transportinβ1 (TRN1) (from UniProt Q92973 1-898)
